{"source": "paper PMC10163288", "binders": {"B1": {"name": "il10ra_site1_sap_8_mot_4271555111f650dfcc09ceace45bed71_0001_1_000000133_0001_37_51_H_._HHH_b1_08546_af2_0001_0000400012_0000001_0_0001 (protein)", "chain": "SSSSDEYKRLKELIEEVVKLQRNGNPEEAEELLEEAIELARERGDWAAAAALEHLARSLRSSSSS"}, "B2": {"name": "il10ra_site1_normal_mot_HHH_b2_07784_af2_000000103_0001_19_36_H_._HHH_b2_01135_0001_0000200013_0000001_0 (protein)", "chain": "SSSSDEEYERLKELIERIVEALENNDPEEVRELLEELKELAEELNTFSARFAVRLLERILRSSSS"}, "B3": {"name": "il10ra_site1_sap_17_mot_1817edcbb30e3b4d8c1983a6c7bdefe8_0001_000000096_0001_36_51_H_._HHH_b1_06688_0001_0000100005_0000001_1_0001 (protein)", "chain": "SSSSSDEYVRLTLRFAKQLAEAGDPEAAEAMLRAARQIAERNGDEEAQRLVEELEEELEKSSSSS"}, "B4": {"name": "il10ra_site1_sap_21_mot_HHH_b1_02397_af2_000000085_0001_39_57_H_._HHH_b2_03598_0001_0000200008_0000002_0_0001 (protein)", "chain": "SSSSSSRQKRQHAEAIIWFAKWIPDRDIRRVALEHAEELAREINDEELLREIEELLEELNSSSSS"}, "B5": {"name": "il10ra_site1_sap_20_mot_6792f2186577ebd01aa11eb855ed7b57_0001_af2_000000149_0001_1_16_H_._HHH_b1_08125_af2_0001_0000200005_0000001_0_0001 (protein)", "chain": "TVEHVLRKFAERAVKGDEDAKRILEVIVEAAKTDPQYREVLERLIEILEELGDPELAEELEELLK"}, "B6": {"name": "il10ra_site1_sap_20_mot_1f0bf248c09923a0581b66a675a8b92c_0001_af2_000000188_0001_52_65_H_._HHH_b1_01266_0001_0000300032_0000001_0_0001 (protein)", "chain": "SSSSSEREEVYRLLREAIELRDEGNPEEAEKVLEEAREIAEELGDWAFLMNIEFLEEQIKRSSSS"}, "B7": {"name": "il10ra_site1_sap_29_mot_HHH_b2_00441_000000147_0001_1_18_H_._HHH_b2_06153_0001_0000200020_0000001_0_0001 (protein)", "chain": "SSSSSSDAKEEVEELLEEAEEIEDPKELTKVLLEALKVALQRGDEEALQLVWEVVHKLSSSSSSS"}, "B8": {"name": "il10ra_site1_normal_mot_2c1a291787c6f40772924d4e9068d803_0001_af2_000000187_0001_34_48_H_._HHH_b1_01986_0001_0000400039_0000001_0_af2pred_dldesign_0_af2pred (protein)", "chain": "SSSSNLEKEVFELTVKAVQLYKAGKKEEAKKLLEKALELAKKMGDEKLIANLEHLLKLVESSSSS"}, "B9": {"name": "il10ra_site1_sap_18_mot_HHH_b2_00076_000000055_0001_40_55_H_._HHH_b2_03406_0001_0000500028_0000001_0_0001 (protein)", "chain": "SSSSSQEDYRVAKEAIEEAIELFRRGNPEEAREVLEEAIEFVEKNGNWAALFSLRHLAKLLSSSS"}, "B10": {"name": "il10ra_site1_normal_mot_65b8060e20531850bca9f2e11f97d954_0001_af2_000000137_0001_17_31_H_._HHH_b1_08628_0001_0000100002_0000001_0_af2pred_0001 (protein)", "chain": "SSSNERERASELFVKAAELIQEGDDEEARKLLEELRELVEEIGDPRLEVSVRFLEALLRAASSSS"}, "B11": {"name": "il10ra_site1_normal_mot_8756ee2cf497b5429c717dfc0c0bcfd6_0001_000000186_0001_1_13_H_._HHH_b2_00624_0001_0000300028_0000001_0_af2pred_0001 (protein)", "chain": "SSSSSEEAEELYRLLREAAELHWEGNPEEARELLEEAEELAKEAGNLNALAVIRFLLEVAGSSSS"}, "B12": {"name": "il10ra_site1_normal_mot_HHH_b1_05056_000000217_0001_1_20_H_._HHH_b1_07608_0001_0000200011_0000001_0 (protein)", "chain": "SSSSSSDEVEEEVEELIEEARRVDPRELYRLLQEAVRLAFENRDEELLRELWRVVKELSSSSSSS"}, "B13": {"name": "il10ra_site1_sap_21_mot_HHH_b2_03262_000000140_0001_43_57_H_._HHH_b2_04959_af2_0001_0000800036_0000001_0_0001 (protein)", "chain": "SSSSSDVEELIEEVEELLERGDPERALQVLWEAAKLAAERGDKELLRRLAELVREVFQLSSSSSS"}, "B14": {"name": "il10ra_site1_normal_mot_HHH_b2_07006_000000108_0001_1_19_H_._HHH_b1_05245_af2_0001_0000100003_0000002_0 (protein)", "chain": "SSSDEEEAERIFEEAEELIKELLEEGDPDRAYEVLRRAIELLLELGDPELARRLSQLFVETSSSS"}, "B15": {"name": "il10ra_site1_normal_mot_cffd2965c37bdde328b01796c783dcd7_0001_1_af2_000000013_0001_37_51_H_._9006757272de5ee680fdc16be6fae3a9_0001_0001_0000300016_0000002_0 (protein)", "chain": "DEEELEEELRELLGVPPEEVQEIIRKISELMGIPPEIVIEALIRQIRQAGDPELAVEALEFSARA"}, "B16": {"name": "il10ra_site1_sap_21_mot_HHH_b2_08127_af2_000000022_0001_1_18_H_._HHH_b1_04352_0001_0000100008_0000002_0_0001 (protein)", "chain": "SSSSSSSELAERVAELLIKASHISDEEEARKLLEEAREVAEEANNQLLRWQVEWIEERLSSSSSS"}, "B17": {"name": "il10ra_site1_normal_mot_HHH_b2_00475_000000107_0001_44_57_H_._HHH_b1_06647_af2_0001_0000800045_0000002_0 (protein)", "chain": "SSSSEEERVVELAFRAVRLLANGNPEEAEKVLEEAKELAEELNDEELQRYVEIALHFVRAHSSSS"}, "B18": {"name": "il10ra_site1_sap_20_mot_HHH_b1_06746_af2_000000172_0001_40_53_H_._c404ac47ecb0312e2f7dfd42d7b7c6cf_0001_0001_0000100001_0000002_0_0001_af2pred_0001 (protein)", "chain": "SSSSSSEAEELVRRLVEELNLSEEEKELLEAAARALELQGVSEEEAERLLRLLVRLRENDSSSSS"}}, "note": "The list shows a part of the results.", "data": [{"molecular_target": "il10ra, Q13651", "assay": "yeast display titration", "values": [{"binder": "B1", "apparent Kd": "inactive: no binding seen"}, {"binder": "B2", "apparent Kd": "inactive: no binding seen"}, {"binder": "B3", "apparent Kd": "inactive: no binding seen"}, {"binder": "B4", "apparent Kd": "inactive: no binding seen"}, {"binder": "B5", "apparent Kd": "inactive: no binding seen"}, {"binder": "B6", "apparent Kd": "inactive: no binding seen"}, {"binder": "B7", "apparent Kd": "inactive: no binding seen"}, {"binder": "B8", "apparent Kd": "inactive: no binding seen"}, {"binder": "B9", "apparent Kd": "inactive: no binding seen"}, {"binder": "B10", "apparent Kd": "inactive: no binding seen"}, {"binder": "B11", "apparent Kd": "inactive: no binding seen"}, {"binder": "B12", "apparent Kd": "inactive: no binding seen"}, {"binder": "B13", "apparent Kd": "inactive: no binding seen"}, {"binder": "B14", "apparent Kd": "inactive: no binding seen"}, {"binder": "B15", "apparent Kd": "inactive: no binding seen"}, {"binder": "B16", "apparent Kd": "inactive: no binding seen"}, {"binder": "B17", "apparent Kd": "inactive: no binding seen"}, {"binder": "B18", "apparent Kd": "inactive: no binding seen"}]}]}
